Where two headings read alike, the source gives them in different places. Results are given in words; binding and its absence hold for the method and conditions named. In cells and extracts the contact can be indirect. A yes stands for co-enrichment or nearness to the bait. Other partners may have been found. Sequences can lack the tags named with a protein.

By UniProt entry, the sequences of proteins in these tests, tags left out.
UniProt P26599: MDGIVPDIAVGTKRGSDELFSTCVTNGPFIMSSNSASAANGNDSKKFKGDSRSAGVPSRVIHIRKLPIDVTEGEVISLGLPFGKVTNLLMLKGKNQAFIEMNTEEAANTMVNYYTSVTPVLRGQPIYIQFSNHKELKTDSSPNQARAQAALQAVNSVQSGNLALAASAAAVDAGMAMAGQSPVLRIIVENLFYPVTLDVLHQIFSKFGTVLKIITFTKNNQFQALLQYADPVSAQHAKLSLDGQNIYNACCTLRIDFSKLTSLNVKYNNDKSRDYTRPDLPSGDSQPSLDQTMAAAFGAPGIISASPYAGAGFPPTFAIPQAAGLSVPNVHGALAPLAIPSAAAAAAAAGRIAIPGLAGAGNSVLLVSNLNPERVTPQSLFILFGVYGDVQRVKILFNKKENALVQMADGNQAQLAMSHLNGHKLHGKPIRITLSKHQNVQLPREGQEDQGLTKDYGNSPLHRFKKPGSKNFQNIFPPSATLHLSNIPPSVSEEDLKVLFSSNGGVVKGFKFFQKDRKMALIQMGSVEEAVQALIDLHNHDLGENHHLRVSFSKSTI

What all share (assay): affinity purification with mass spectrometry; lysate (1 ml of 1 mg/ml) of 293T cells transfected with Dbr1-FLAG, anti-FLAG M2 magnetic beads, no nuclease treatment, eluted with SDS-PAGE loading dye; control: un-transfected 293T cells; semi-quantitative spectral counts
Experiment [1] concerns the target T1, FLAG-tagged Dbr1 (human) (UniProt Q9UK59).
T1 sequence: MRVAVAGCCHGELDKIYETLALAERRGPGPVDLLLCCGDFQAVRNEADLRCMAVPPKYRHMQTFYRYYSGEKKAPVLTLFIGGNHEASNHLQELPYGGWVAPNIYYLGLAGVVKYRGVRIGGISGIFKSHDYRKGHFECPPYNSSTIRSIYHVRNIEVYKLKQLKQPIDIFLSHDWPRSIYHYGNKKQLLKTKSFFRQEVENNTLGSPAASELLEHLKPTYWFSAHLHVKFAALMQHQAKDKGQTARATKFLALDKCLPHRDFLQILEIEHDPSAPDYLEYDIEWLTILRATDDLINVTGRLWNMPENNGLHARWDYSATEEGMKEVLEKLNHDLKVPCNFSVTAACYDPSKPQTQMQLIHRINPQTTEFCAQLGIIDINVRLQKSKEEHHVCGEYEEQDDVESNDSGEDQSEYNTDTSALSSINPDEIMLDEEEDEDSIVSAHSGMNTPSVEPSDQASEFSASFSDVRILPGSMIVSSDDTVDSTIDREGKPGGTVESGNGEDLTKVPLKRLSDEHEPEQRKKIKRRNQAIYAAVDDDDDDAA

Experiment [2] deals with T2, FLAG-tagged Dbr1 (human), Q9UK59.
T2 chain: T1 sequence
Particulars: remark: other sources report otherwise.

Experiment [3] deals with T1, FLAG-tagged Dbr1 (human). This is another data set of the same source.

For PTBP1 (from UniProt P26599 1-557), the binding entry in experiment [1] is listed as “binds”.

Consider Cwf19L, the human homolog of yeast Drn1, for which, in experiment [1], the binding entry is recorded as “binds”.

B1: AQR, O60306 1-1485 (protein)
chain: MAAPAQPKKIVAPTVSQINAEFVTQLACKYWAPHIKKKSPFDIKVIEDIYEKEIVKSRFAIRKIMLLEFSQYLENYLWMNYSPEVSSKAYLMSICCMVNEKFRENVPAWEIFKKKPDHFPFFFKHILKAALAETDGEFSLHEQTVLLLFLDHCFNSLEVDLIRSQVQQLISLPMWMGLQLARLELELKKTPKLRKFWNLIKKNDEKMDPEAREQAYQERRFLSQLIQKFISVLKSVPLSEPVTMDKVHYCERFIELMIDLEALLPTRRWFNTILDDSHLLVHCYLSNLVRREEDGHLFSQLLDMLKFYTGFEINDQTGNALTENEMTTIHYDRITSLQRAAFAHFPELYDFALSNVAEVDTRESLVKFFGPLSSNTLHQVASYLCLLPTLPKNEDTTFDKEFLLELLVSRHERRISQIQQLNQMPLYPTEKIIWDENIVPTEYYSGEGCLALPKLNLQFLTLHDYLLRNFNLFRLESTYEIRQDIEDSVSRMKPWQSEYGGVVFGGWARMAQPIVAFTVVEVAKPNIGENWPTRVRADVTINLNVRDHIKDEWEGLRKHDVCFLITVRPTKPYGTKFDRRRPFIEQVGLVYVRGCEIQGMLDDKGRVIEDGPEPRPNLRGESRTFRVFLDPNQYQQDMTNTIQNGAEDVYETFNIIMRRKPKENNFKAVLETIRNLMNTDCVVPDWLHDIILGYGDPSSAHYSKMPNQIATLDFNDTFLSIEHLKASFPGHNVKVTVEDPALQIPPFRITFPVRSGKGKKRKDADVEDEDTEEAKTLIVEPHVIPNRGPYPYNQPKRNTIQFTHTQIEAIRAGMQPGLTMVVGPPGTGKTDVAVQIISNIYHNFPEQRTLIVTHSNQALNQLFEKIMALDIDERHLLRLGHGEEELETEKDFSRYGRVNYVLARRIELLEEVKRLQKSLGVPGDASYTCETAGYFFLYQVMSRWEEYISKVKNKGSTLPDVTEVSTFFPFHEYFANAPQPIFKGRSYEEDMEIAEGCFRHIKKIFTQLEEFRASELLRSGLDRSKYLLVKEAKIIAMTCTHAALKRHDLVKLGFKYDNILMEEAAQILEIETFIPLLLQNPQDGFSRLKRWIMIGDHHQLPPVIKNMAFQKYSNMEQSLFTRFVRVGVPTVDLDAQGRARASLCNLYNWRYKNLGNLPHVQLLPEFSTANAGLLYDFQLINVEDFQGVGESEPNPYFYQNLGEAEYVVALFMYMCLLGYPADKISILTTYNGQKHLIRDIINRRCGNNPLIGRPNKVTTVDRFQGQQNDYILLSLVRTRAVGHLRDVRRLVVAMSRARLGLYIFARVSLFQNCFELTPAFSQLTARPLHLHIIPTEPFPTTRKNGERPSHEVQIIKNMPQMANFVYNMYMHLIQTTHHYHQTLLQLPPAMVEEGEEVQNQETELETEEEAMTVQADIIPSPTDTSCRQETPAFQTDTTPSETGATSTPEAIPALSETTPTVVGAVSAPAEANTPQDATSAPEETK
In the case of B1, the binding result in experiment [2] is recorded as “binds”.

B2: SRSF7 (protein, UniProt Q16629 1-238)
chain: MSRYGRYGGETKVYVGNLGTGAGKGELERAFSYYGPLRTVWIARNPPGFAFVEFEDPRDAEDAVRGLDGKVICGSRVRVELSTGMPRRSRFDRPPARRPFDPNDRCYECGEKGHYAYDCHRYSRRRRSRSRSRSHSRSRGRRYSRSRSRSRGRRSRSASPRRSRSISLRRSRSASLRRSRSGSIKGSRYFQSPSRSRSRSRSISRPRSSRSKSRSPSPKRSRSPSGSPRRSASPERMD
B2: in experiment [3], the binding result is reported as “binds”.

B3: XAB2 (protein, UniProt Q9HCS7 1-855)
chain: MVVMARLSRPERPDLVFEEEDLPYEEEIMRNQFSVKCWLRYIEFKQGAPKPRLNQLYERALKLLPCSYKLWYRYLKARRAQVKHRCVTDPAYEDVNNCHERAFVFMHKMPRLWLDYCQFLMDQGRVTHTRRTFDRALRALPITQHSRIWPLYLRFLRSHPLPETAVRGYRRFLKLSPESAEEYIEYLKSSDRLDEAAQRLATVVNDERFVSKAGKSNYQLWHELCDLISQNPDKVQSLNVDAIIRGGLTRFTDQLGKLWCSLADYYIRSGHFEKARDVYEEAIRTVMTVRDFTQVFDSYAQFEESMIAAKMETASELGREEEDDVDLELRLARFEQLISRRPLLLNSVLLRQNPHHVHEWHKRVALHQGRPREIINTYTEAVQTVDPFKATGKPHTLWVAFAKFYEDNGQLDDARVILEKATKVNFKQVDDLASVWCQCGELELRHENYDEALRLLRKATALPARRAEYFDGSEPVQNRVYKSLKVWSMLADLEESLGTFQSTKAVYDRILDLRIATPQIVINYAMFLEEHKYFEESFKAYERGISLFKWPNVSDIWSTYLTKFIARYGGRKLERARDLFEQALDGCPPKYAKTLYLLYAQLEEEWGLARHAMAVYERATRAVEPAQQYDMFNIYIKRAAEIYGVTHTRGIYQKAIEVLSDEHAREMCLRFADMECKLGEIDRARAIYSFCSQICDPRTTGAFWQTWKDFEVRHGNEDTIKEMLRIRRSVQATYNTQVNFMASQMLKVSGSATGTVSDLAPGQSGMDDMKLLEQRAEQLAAEAERDQPLRAQSKILFVRSDASREELAELAQQVNPEEIQLGEDEDEDEMDLEPNEVRLEQQSVPAAVFGSLKED
Turning to B3, in experiment [3], the binding entry is on record as “binds”.

B4: HNRNPL (protein, UniProt P14866 1-589)
chain: MSRRLLPRAEKRRRRLEQRQQPDEQRRRSGAMVKMAAAGGGGGGGRYYGGGSEGGRAPKRLKTDNAGDQHGGGGGGGGGAGAAGGGGGGENYDDPHKTPASPVVHIRGLIDGVVEADLVEALQEFGPISYVVVMPKKRQALVEFEDVLGACNAVNYAADNQIYIAGHPAFVNYSTSQKISRPGDSDDSRSVNSVLLFTILNPIYSITTDVLYTICNPCGPVQRIVIFRKNGVQAMVEFDSVQSAQRAKASLNGADIYSGCCTLKIEYAKPTRLNVFKNDQDTWDYTNPNLSGQGDPGSNPNKRQRQPPLLGDHPAEYGGPHGGYHSHYHDEGYGPPPPHYEGRRMGPPVGGHRRGPSRYGPQYGHPPPPPPPPEYGPHADSPVLMVYGLDQSKMNCDRVFNVFCLYGNVEKVKFMKSKPGAAMVEMADGYAVDRAITHLNNNFMFGQKLNVCVSKQPAIMPGQSYGLEDGSCSYKDFSESRNNRFSTPEQAAKNRIQHPSNVLHFFNAPLEVTEENFFEICDELGVKRPSSVKVFSGKSERSSSGLLEWESKSDALETLGFLNHYQMKNPNGPYPYTLKLCFSTAQHAS
In the case of B4, the binding entry in experiment [3] is “binds”.

B5: PRP19, Q9UMS4 1-504 (protein)
chain: MSLICSISNEVPEHPCVSPVSNHVYERRLIEKYIAENGTDPINNQPLSEEQLIDIKVAHPIRPKPPSATSIPAILKALQDEWDAVMLHSFTLRQQLQTTRQELSHALYQHDAACRVIARLTKEVTAAREALATLKPQAGLIVPQAVPSSQPSVVGAGEPMDLGELVGMTPEIIQKLQDKATVLTTERKKRGKTVPEELVKPEELSKYRQVASHVGLHSASIPGILALDLCPSDTNKILTGGADKNVVVFDKSSEQILATLKGHTKKVTSVVFHPSQDLVFSASPDATIRIWSVPNASCVQVVRAHESAVTGLSLHATGDYLLSSSDDQYWAFSDIQTGRVLTKVTDETSGCSLTCAQFHPDGLIFGTGTMDSQIKIWDLKERTNVANFPGHSGPITSIAFSENGYYLATAADDSSVKLWDLRKLKNFKTLQLDNNFEVKSLIFDQSGTYLALGGTDVQIYICKQWTEILHFTEHSGLTTGVAFGHHAKFIASTGMDRSLKFYSL
Take B5: the binding result in experiment [2] is “binds”.

B6: RBM22 (protein, UniProt Q9NW64 1-420)
chain: MATSLGSNTYNRQNWEDADFPILCQTCLGENPYIRMTKEKYGKECKICARPFTVFRWCPGVRMRFKKTEVCQTCSKLKNVCQTCLLDLEYGLPIQVRDAGLSFKDDMPKSDVNKEYYTQNMEREISNSDGTRPVGMLGKATSTSDMLLKLARTTPYYKRNRPHICSFWVKGECKRGEECPYRHEKPTDPDDPLADQNIKDRYYGINDPVADKLLKRASTMPRLDPPEDKTITTLYVGGLGDTITETDLRNHFYQFGEIRTITVVQRQQCAFIQFATRQAAEVAAEKSFNKLIVNGRRLNVKWGRSQAARGKEKEKDGTTDSGIKLEPVPGLPGALPPPPAAEEEASANYFNLPPSGPPAVVNIALPPPPGIAPPPPPGFGPHMFHPMGPPPPFMRAPGPIHYPSQDPQRMGAHAGKHSSP
As for B6, the binding entry in experiment [3] is “binds”.
